PubChem BioAssay AID652243 – Drosophila RNAi Screening Center | 2013

Screen: 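Fly genes required for human androgen receptor driven transcription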 (primary screen)
Cell system: Drosophila S2R+ cells
Reagents: long dsRNA against Drosophila genes
Time to read-out: 72 h (48 h, then 24 h hormone)
Challenge: synthetic androgen R1881 at 10 nM for 24 h
Read-out: 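Per-well raw luminescence of the androgen-driven firefly reporter and of the Renilla control, two replicates each, without normalisation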
Reading the numbers: firefly reporter light: higher = more light from androgen-responsive reporter; Renilla control light: higher = more constitutive control signal (cell number, transfection)
Active means: 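Across duplicate plates, a knock-down whose log firefly/Renilla ratio shifted a set fold down or up from the GFP/LacZ control mean was a hit; the downward cut appears as both 1.5 and 3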
Calls: active = hit: reporter lowered or raised; inactive = no hit
The screen tested about 24,000 reagents; shown is an unselected part of those that have a named target and a result. Over the whole deposit, 246 (1%) were called active. 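Plates not normalised; calls are printed but the firefly/Renilla ratio behind them is not deposited; fold cut for lowering reported inconsistently.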 Raw values vary from plate to plate and are shown uncorrected. Reagent sequences are not shown. Not given: the amount of reagent.

Depletion of lncRNA:CR32661 (GeneID 3772605) [DRSC28066] came out at: firefly reporter light, replicate 1 = 4.40e5; firefly reporter light, replicate 2 = 7.22e5; Renilla control light, replicate 1 = 7.66e5; Renilla control light, replicate 2 = 1.08e6; inactive.
After knock-down of Iswi (GeneID 36390) [DRSC07446] the results were firefly reporter light, replicate 1 = 3.88e5; firefly reporter light, replicate 2 = 3.28e5; Renilla control light, replicate 1 = 1.22e6; Renilla control light, replicate 2 = 9.39e5; inactive.
With knock-down of Iswi (GeneID 36390) [DRSC26047], the record shows firefly reporter light, replicate 1 = 3.27e5; firefly reporter light, replicate 2 = 3.43e5; Renilla control light, replicate 1 = 5.55e5; Renilla control light, replicate 2 = 6.18e5; inactive.
Silencing of Pk34A (GeneID 34705) [DRSC03398] resulted in: firefly reporter light, replicate 1 = 3.48e5; firefly reporter light, replicate 2 = 3.33e5; Renilla control light, replicate 1 = 2.23e6; Renilla control light, replicate 2 = 2.27e6; inactive.
Silencing of Pk34A (GeneID 34705) [DRSC28021] gave: firefly reporter light, replicate 1 = 6.69e5; firefly reporter light, replicate 2 = 5.57e5; Renilla control light, replicate 1 = 1.39e6; Renilla control light, replicate 2 = 1.16e6; inactive.
Pk34A (GeneID 34705) [DRSC37044] scored inactive.
Against CG31997 (GeneID 319064) [DRSC17105] the deposit lists firefly reporter light, replicate 1 = 1.28e6; firefly reporter light, replicate 2 = 8.25e5; Renilla control light, replicate 1 = 3.40e6; Renilla control light, replicate 2 = 1.38e6; inactive.

Entries above whose target name begins with I or i (2):
Iswi (GeneID 36390) [DRSC07446] | firefly reporter light, replicate 1: 3.88e5; firefly reporter light, replicate 2: 3.28e5; Renilla control light, replicate 1: 1.22e6; Renilla control light, replicate 2: 9.39e5; call: inactive
Iswi (GeneID 36390) [DRSC26047] | firefly reporter light, replicate 1: 3.27e5; firefly reporter light, replicate 2: 3.43e5; Renilla control light, replicate 1: 5.55e5; Renilla control light, replicate 2: 6.18e5; call: inactive

The list goes on.
For CG31211 (GeneID 41443) [DRSC14953], the entry reads firefly reporter light, replicate 1 = 3.07e5; firefly reporter light, replicate 2 = 3.10e5; Renilla control light, replicate 1 = 2.19e6; Renilla control light, replicate 2 = 2.65e6; inactive.
Knock-down of CG31211 (GeneID 41443) [DRSC15344] resulted in: firefly reporter light, replicate 1 = 1.26e5; firefly reporter light, replicate 2 = 1.35e5; Renilla control light, replicate 1 = 1.90e6; Renilla control light, replicate 2 = 1.95e6; inactive.
Silencing of CG31211 (GeneID 41443) [DRSC21478] resulted in: firefly reporter light, replicate 1 = 6.14e5; firefly reporter light, replicate 2 = 8.19e5; Renilla control light, replicate 1 = 1.06e6; Renilla control light, replicate 2 = 1.21e6; inactive.
mab-21 (GeneID 44127) [DRSC18791] showed firefly reporter light, replicate 1 = 2.78e5; firefly reporter light, replicate 2 = 3.01e5; Renilla control light, replicate 1 = 3.03e6; Renilla control light, replicate 2 = 3.08e6; inactive.
Depletion of mab-21 (GeneID 44127) [DRSC26005] came out at: firefly reporter light, replicate 1 = 5.06e5; firefly reporter light, replicate 2 = 4.66e5; Renilla control light, replicate 1 = 9.00e5; Renilla control light, replicate 2 = 8.33e5; inactive.
Against cbc (GeneID 36494) [DRSC06957], the values are firefly reporter light, replicate 1 = 1.08e6; firefly reporter light, replicate 2 = 1.08e6; Renilla control light, replicate 1 = 2.39e6; Renilla control light, replicate 2 = 2.48e6; inactive.
Knock-down of EMC8-9 (GeneID 37635) [DRSC04380] gave: firefly reporter light, replicate 1 = 5.29e5; firefly reporter light, replicate 2 = 4.27e5; Renilla control light, replicate 1 = 1.08e6; Renilla control light, replicate 2 = 8.80e5; inactive.
After knock-down of CG34247 (GeneID 5740480) [DRSC09933], the record shows firefly reporter light, replicate 1 = 3.80e5; firefly reporter light, replicate 2 = 2.92e5; Renilla control light, replicate 1 = 3.56e6; Renilla control light, replicate 2 = 2.78e6; inactive.
GABPI (GeneID 33516) [DRSC00494] gave firefly reporter light, replicate 1 = 8.31e5; firefly reporter light, replicate 2 = 9.87e5; Renilla control light, replicate 1 = 1.76e6; Renilla control light, replicate 2 = 1.36e6; inactive.
Against GABPI (GeneID 33516) [DRSC27495], the values are firefly reporter light, replicate 1 = 2.34e5; firefly reporter light, replicate 2 = 2.29e5; Renilla control light, replicate 1 = 5.61e5; Renilla control light, replicate 2 = 8.63e5; inactive.
With knock-down of CG7156 (GeneID 42187) [DRSC16207] the results were firefly reporter light, replicate 1 = 90501; firefly reporter light, replicate 2 = 80964; Renilla control light, replicate 1 = 7.15e5; Renilla control light, replicate 2 = 5.67e5; inactive.
Against CG7156 (GeneID 42187) [DRSC27345], the values are firefly reporter light, replicate 1 = 2.62e5; firefly reporter light, replicate 2 = 3.06e5; Renilla control light, replicate 1 = 4.55e5; Renilla control light, replicate 2 = 6.28e5; inactive.
For CG7156 (GeneID 42187) [DRSC36936] the deposit lists inactive.
With knock-down of FucTC (GeneID 3355171) [DRSC20966] the results were firefly reporter light, replicate 1 = 6.48e5; firefly reporter light, replicate 2 = 9.24e5; Renilla control light, replicate 1 = 1.97e6; Renilla control light, replicate 2 = 1.66e6; inactive.
After knock-down of FucTC (GeneID 3355171) [DRSC29686], the screen gave firefly reporter light, replicate 1 = 8.28e5; firefly reporter light, replicate 2 = 7.89e5; Renilla control light, replicate 1 = 1.69e6; Renilla control light, replicate 2 = 1.49e6; inactive.
